Measurements as given in patent publication US7414106 (dated 2008).

Test: general procedure: Fmoc solid-phase peptide synthesis; 4-Fmoc-hydrazinobenzoyl AM resin (Novabiochem)
Settings: whole synthesis

Substance	crude HPLC purity [%]
H-LYKAA-SEt	90
H-LCYKAA-SEt	70
